This note sets out measurements from US20110135573A1, “METALLOPROTEINASE 9 AND METALLOPROTEINASE 2 BINDING PROTEINS” (DYAX CORP., priority 2009, published 2011).

Sequences of proteins named here, by UniProt entry; tags and fusion partners are left off. Residues count along the entry.
UniProt P14780, residues 107-457: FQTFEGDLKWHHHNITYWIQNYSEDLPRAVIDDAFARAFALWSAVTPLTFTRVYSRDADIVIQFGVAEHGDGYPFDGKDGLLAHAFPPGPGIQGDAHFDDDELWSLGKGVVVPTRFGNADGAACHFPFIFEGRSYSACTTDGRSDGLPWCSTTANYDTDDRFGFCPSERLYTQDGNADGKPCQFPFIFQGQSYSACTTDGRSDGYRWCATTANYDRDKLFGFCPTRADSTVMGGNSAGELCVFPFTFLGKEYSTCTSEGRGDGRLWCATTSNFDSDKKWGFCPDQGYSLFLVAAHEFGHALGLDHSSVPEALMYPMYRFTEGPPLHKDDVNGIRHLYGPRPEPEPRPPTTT

Results are given in words; binding and its absence hold for the method and conditions named. Some binding calls cover weakened binding; strength is not graded here.

Test [1] deals with Human MMP-9 catalytic domain (BIOMOL, SE-244) (human) (UniProt P14780). Kind of test: SPR (Biacore 3000).
The target is the same in test [2]. In words: SPR (Biacore 3000), antibody captured via anti-Fc, enzyme flowed.

B1: 539A-M0237-D02 hIgG1 (antibody, V domains shown)
VH: EVQLLESGGGLVQPGGSLRLSCAASGFTFSQYPMWWVRQAPGKGLEWVSYIVPSGGRTYYADSVKGRFTISRDNSKNTLYLQMNSLRAEDTAVYYCAKDRAYGDYVGWNGFDYWGQGTLVTVSS
VL: DIQMTQSPATLSLSPGERATLSCRASQSISSFLAWYQQKPGQAPRLLIYDASYRATGIPARFSGSGSGTDFTLTISSLEPEDYAVYYCQQRGNWPITFGQGTRLEIK
On to B1, for which the binding entry in test [1] and in test [2] was “binds” in each case.
